According to the supplement of paper PMC5949888:
± gives the standard deviation of the averaged measurements. Most values lie at the floor of the assay. Slopes are relative: functional sequences can read slightly below zero.

System: Saccharomyces cerevisiae PS128 hsf1 delta, HSF1(1-493) fusion
Experiment: growth estimate (transactivation domain function in HSF1 fusion, heat-shock survival) (a.u. (slope of normalised read count over time)); higher = stronger growth at 37°C, i.e. more transactivation activity
Conditions: library: random library

Substance	growth estimate
LPARVRGQRSGRLGTRGHMP	< -0.25
GLFYEGHLRTVKLLRFVRAN	< -0.25
TDIRCEVQRNITPN	< -0.25
QRVTVSVW	< -0.25
KMVWFGVIVSEVTS	< -0.25
QIGHPGKLTRH	< -0.25
CLRYCRE	< -0.25
RLTSKISSLEASGVANYKCF	< -0.25
QLQAAKSNSIILTRGTQGKV	< -0.25
IRAIDISVIAEQSPFWAPSL	< -0.25
GRTEVCSDPRFAMHPVVGME	-0.246
NSTPVT	< -0.25
ATPQSGKGSR	< -0.25
AHTSSGGTG	< -0.25
TQSRMPTCKRGQSRKLT	< -0.25
QVTVVSGADEYKPLRRSIPG	< -0.25
DGGRIEKFPTL	< -0.25
RGVKTASCMAF	< -0.25
YTS	< -0.25
GDAKLVSTSYTLTYTSNFEE	< -0.25
GLRQFGAATERPGLACRGIS	< -0.25
VCYRVVSDFTWCSCGAETYM	< -0.25
LYRPLLFI	< -0.25

Substance	growth estimate
LQI	< -0.25
TRKIIPDPRRIHVQMVTHAT	< -0.25
FNGML	< -0.25
CRTHKGKRV	< -0.25
GCKDL	< -0.25
PDGRTRDGTWRHRS	< -0.25
RWNGYVASYY	< -0.25
GLVQTPFRPNWTGTGSLV	< -0.25
GGLPCCPVKGHAFSRMCGTL	< -0.25
LGIY	< -0.25
LFSGVRWGDHSG	< -0.25
VIELTHIGKLQMPGI	< -0.25
HIVRAGEAGDILPAGPDCIL	< -0.25
EVIRSKS	< -0.25
RQRA	< -0.25
QGYNL	< -0.25
LDPLAW	< -0.25
SQRFWIDASGSVTVFYVGTT	< -0.25
SRV	< -0.25
SLVPSHS	< -0.25
TFLDPPCRIADVLRHRVGIL	< -0.25
TGRLIVSECLPPWPDFPQTG	< -0.25
LVCRRPGNCGPDGRFGTSSH	< -0.25

Single values from the list:
In growth estimate, SRV is listed with < -0.25
In growth estimate, LGIY is listed with < -0.25

More results follow:

Substance	growth estimate
GSLRGSCWVVFLP	< -0.25
QSWGKPGPKACIGSTDS	< -0.25
ASSGDWVDAYSGLARGPSQG	< -0.25
RCFYRLTWQWLHGG	< -0.25
KRGASKLQWARVRQPCRQIK	< -0.25
RITAHRLC	< -0.25
LWRVNYVLGRRLLKRLAVLR	-0.231
SVRGVYCA	< -0.25
RSNEFECGLLEYCNACDICR	< -0.25
VGRHSVSCADGIRPIKQPYA	< -0.25
LCELVPPGTPCQSSKLGCHT	< -0.25
SVHSSNLEHWLEIRT	< -0.25
RRFRDGADRGIRKLGKFSPS	< -0.25
GTGPHRMCSPIGLLVRIGVL	< -0.25
SKYCALLTRKRHRKQGGTRP	< -0.25
LTGNPPRNLRRVICLTPGVV	-0.231
RSVSAMLVPASLISGVGSQP	< -0.25
ARRATFGVGFQPSVTMCDHN	< -0.25
RLRYRTGRALPALVCALEDV	< -0.25
LCGSWVVRGRTVSCVSRSFR	< -0.25
TNN	< -0.25
SSKLWNLHRLTAKGVALSFL	< -0.25
KQHGTRRLEPVKAEARRGHA	< -0.25

Substance	growth estimate
AGVNL	< -0.25
RDARMVERLLTGSLAKNRAA	< -0.25
WDVRGAKRQHSSGVFLAREV	0.0474
RLIDPSEFAAR	< -0.25
VGARQTSLVRYPTSSLRIGR	< -0.25
LNGSGSSVLAKACRRRVARI	< -0.25
NPV	< -0.25
CGTEAEFVAYVNVRWGRWQS	< -0.25
RLGWPLGWVRSQVYAS	< -0.25
ASVISDGAGELGQQLACF	< -0.25
FTASRG	< -0.25
GSEATGGGGGIVPPVYPSIF	< -0.25
FNASGNRLTARAMIVVLRVH	< -0.25
KAPALCRCTGRFLIRKRCPR	< -0.25
SVLVRGTEVPTSARIVRQAA	< -0.25
IVAIEVHSEPMFLYRYRRSA	< -0.25
FAVPARNRKNSWHFLMNGCV	< -0.25
KLGPAHYQFNTYLLRYDELD	< -0.25
SVQSGAVRIQR	< -0.25
VLPAPIRARYKESNK	< -0.25
VGSRIEVCR	< -0.25
HIPSTDIGVKSGPVAQGAGS	< -0.25
TRGLLCWADGRGL	< -0.25

Substance	growth estimate
CQARTACGRIRGDRLRWG	< -0.25
FHLTARLREVQFSSVPEVL	< -0.25
TVREVNRIPLEFVRLYRPVS	< -0.25
YLVWGSHKEGNTQ	-0.246
GLNLNPCQALRFTRGRVVCT	< -0.25
PCDVSGELITAWSCL	< -0.25
IRITWIFVH	-0.243
VLDSWSFGPHGMLIENKTAY	< -0.25
DGVLRQVCSAIVVCFPSA	< -0.25
SSPLRRMNVALLMFLPACLN	< -0.25
TPF	< -0.25
RLECERAIRFGLHVGRRNRN	-0.222
ITRRPSQESEDRPWPSGIKA	< -0.25
MSGRAILCIQIGNMRVSIVI	< -0.25
SWILK	< -0.25
QTQFMR	< -0.25
ILGHESVPYVFILARHANLA	< -0.25
PES	< -0.25
PHLKHSDSSVNCPGALVPAA	< -0.25
LSA	-0.248 ± 0.003
GSLFAPDL	< -0.25
SVHSPAMEVDFPSFWTLQRT	< -0.25
HPYGQATFTHNRPRSSSRR	< -0.25

For reference, part of the list above:
Substance	growth estimate
IRITWIFVH	-0.243
VLDSWSFGPHGMLIENKTAY	< -0.25
DGVLRQVCSAIVVCFPSA	< -0.25
SSPLRRMNVALLMFLPACLN	< -0.25

Some of the entries so far, bar-delimited.
Substance | growth estimate
TPF | < -0.25
RLECERAIRFGLHVGRRNRN | -0.222

The list continues.

Substance	growth estimate
RPVFGCPLRWLQRQRRVHKE	< -0.25
LDRPPCLISWPPGCTLPNIA	< -0.25
TVCGRRPLPEV	< -0.25
LGWGQPSHRRYDLGNWNSSF	< -0.25
ADPQTLHRSLIHWPRYLTGM	< -0.25
TVSHS	< -0.25
FRWEFKSGGEVVDTFPHALH	< -0.25
VVGPLIGLVDCP	< -0.25
SYEFLSRTTPRCSVSMLRFS	< -0.25
FGSSGDQ	< -0.25
KCFEKECRVHENIL	< -0.25
TSTLEVWAKNRNISN	< -0.25
WRGVLDDEDGYCAEYRCQGV	< -0.25
VLGTGCPSTLISRTLLPHRR	< -0.25
FHVYGN	< -0.25
STFQEQPVGPTMGCRVKFLH	< -0.25
MMSCLSTVSPTVRNLPASPR	-0.231
MPTNRITRDPWTHPIC	< -0.25
QFSS	< -0.25
FLMRG	< -0.25
NNYYGTNNDELGNGLTFGKT	< -0.25
VQPGCARIWRLGAGPSGERS	< -0.25
TVRGLQAQKRQYAMLNICTG	< -0.25

Substance	growth estimate
WSEGLGSNRNSLILPTYQR	< -0.25
AMFMEKFYRGL	< -0.25
FYA	< -0.25
YAANSRPDVYT	< -0.25
FRPP	< -0.25
QIFCACVRTITYAPIVGHTS	< -0.25
SPSRTNGWFGPALRSIGLKL	< -0.25
LRHGTGPWVGKREEN	< -0.25
VVAQEPIGYRGRCRSDCMGP	< -0.25
LCPQNFGNVVASTDPCSQLW	-0.112
ALVCSMHLLRGGPLRWGPS	< -0.25
SQSEP	< -0.25
PNHAPRPY	< -0.25
EPGPCL	-0.236
RRADEYSGVMRA	< -0.25
RGNG	< -0.25
SGDRRSHFPGFVLVNLGQRA	< -0.25
SKVRLDSVGGAPISCPSGAH	< -0.25
AHAVGCEACAQWVDRDWTAS	< -0.25
